Assay [1] has as its target bovine collagen (KOKEN AteloCell I-AC) (bovine). The assay can be described thus: ELISA; wells coated with fibronectin (5 µg/mL), perlecan (1 µg/mL) or collagen (5 µg/mL) in PBS; a range of concentrations of full-length PRELP in 10 mM HEPES pH 7.5, 150 mM NaCl, 0.05% Tween-20, room temperature, 1 h; detected with anti-DDDDK-tag mAb HRP; both purified. (In general: In an ELISA, binding on a coated surface is turned into a signal by an enzyme label.)

For assay [2], the target named is human fibronectin (human). The assay is described as above.

No constants are given. Whether binding was seen depends on the method and setting. Binding calls can cover weak binding; strength is not graded here.

B1: Recombinant human full-length PRELP (proline/arginine-rich end leucine-rich repeat protein) (natural protein, UniProt P51888 21-382, looked up)
chain: QPTRRPRPGTGPGRRPRPRPRPTPSFPQPDEPAEPTDLPPPLPPGPPSIFPDCPRECYCPPDFPSALYCDSRNLRKVPVIPPRIHYLYLQNNFITELPVESFQNATGLRWINLDNNRIRKIDQRVLEKLPGLVFLYMEKNQLEEVPSALPRNLEQLRLSQNHISRIPPGVFSKLENLLLLDLQHNRLSDGVFKPDTFHGLKNLMQLNLAHNILRKMPPRVPTAIHQLYLDSNKIETIPNGYFKSFPNLAFIRLNYNKLTDRGLPKNSFNISNLLVLHLSHNRISSVPAINNRLEHLYLNNNSIEKINGTQICPNDLVAFHDFSSDLENVPHLRYLRLDGNYLKPPIPLDLMMCFRLLQSVVI
notes: human PRELP, amino acid residues 21-382 (Uniprot numbering); source: Mimic Sf9 cells, purified from the supernatant (DDDDK-tagged Protein Purification Gel, Benzonase, SEC); not shown: FLAG, C-terminal, kept
In the case of B1, the binding entry in assay [1] and in assay [2] was “binds” in each case.

Source of the values: publication PMC12241546, “PRELP functions via multiple interactions with intrinsically weak affinity relying on ECM anchoring and remodeling” (Scientific Reports, 2025).
